Data reported in PubChem BioAssay AID493014 (National Center for Advancing Translational Sciences (NCATS), 2011).
The whole screen tested about 340,000 compounds, of which about 170 (0.05%) were called active. Inconclusive results, whose numbers are uncertain, are shown with a selection of clear calls. Calls come from the whole dose curve; as a rule, active = well fitted inhibition curve with a large enough effect in the signal ratio, with a control signal flat (not every such curve was filed as active); inconclusive = small, poorly fitted or top-dose-only effect, or effect the other way, or a change in a side signal; inactive = flat fitted curve, though single readings scatter; the % refers to the signal ratio. Where the call is inconclusive, the potency comes from a doubtful curve fit.

Test: qHTS Assay to Find Inhibitors of Chronic Active B-Cell Receptor Signaling;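 for activity change, negative = inhibition: plate controls were basal doxycycline-induced cells for no effect and cells given 10 µM MG132 for full effect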
Conditions: ABC-DLBCL IkBa-CBG/CBR reporter, luminescence ratio (green luciferase fused to IkBa over red control in TMD8 lymphoma cells), 4 h; activity change, negative = inhibition: at 46.1 µM (top of the series)
Procedure, shortened: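 Compounds up to 46 uM were incubated four hours with TMD8 cells whose green CBG68 luciferase is fused to IkappaBalpha; red CBR luminescence normalised the signal, and concentration-effect curves were fitted to fusion, red and ratio data.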
Potency is the fitted concentration of half-maximal effect.

Structure (SMILES) | activity change, negative = inhibition | Potency
C[C@H]1CN([C@@H](C)CO)C(=O)c2cc(NC(=O)C3CCCCC3)ccc2O[C@H]1CN(C)S(=O)(=O)c1ccccc1 | inconclusive: -2.69% | 
Cc1ccc(S(=O)(=O)N(C)C)cc1NC(=O)CSc1ccc2c(c1)OCCO2 |  | inconclusive: 29.1 µM [falling, single point]
C=CCn1c(SCCC)nc(O)cc1=O | inconclusive: 3.94% | 
Nc1ncc(-c2nnnn2-c2ccc(Cl)cc2)c(-c2ccc(Cl)cc2)n1 |  | inconclusive: 12.6 µM [falling, partial curve, poor fit]
CCCCCCCCCCCCN1C(=O)CSC1c1cccnc1 (stereo not given) | inconclusive: 5.79% | 
O=C(CCCn1c(=O)[nH]c2cc(Cl)ccc2c1=O)NCCCN1CCCC1 |  | inconclusive: 18.4 µM [rising, partial curve, poor fit]
COc1ccccc1N=Cc1c(C)c(C#N)c2[nH]c3ccccc3n2c1=O |  | inconclusive: 35.5 µM [falling, single point]
CCn1cc(C(=O)NCCCN(CC(C)C)CC(C)C)c(=O)c2cc(S(=O)(=O)N3CCOCC3)ccc21 | inactive: 1.8% | 
CCCC/C(O)=C1\C(=O)CCCC1=NCCc1c(C)[nH]c2ccccc12 | inconclusive: -1.75% | 
COc1ccc(OC)c(NC(=O)CSC2=Nc3ccccc3C3=NC(CC(=O)NCc4ccc5c(c4)OCO5)C(=O)N23)c1 (stereo not given) |  | inconclusive: 17.8 µM [falling, single point]
O=C(OCc1ccccc1)c1ccccc1O | inconclusive: 1.89% | 
CCOC(=O)N1CCN(C(=O)CSCC(=O)Nc2nc(-c3ccc(-c4ccccc4)cc3)cs2)CC1 |  | inconclusive: 14.6 µM [falling, partial curve, poor fit]
CCOC(=O)C1CCCN(C(=S)NC(=O)/C=C/c2ccc(F)cc2)C1 (stereo not given) |  | inconclusive: 15.8 µM [falling, partial curve, poor fit]
O=C(C[n+]1cccc2ccccc21)c1ccc(Br)cc1 | inactive: 1.73% | 
O=C1CSC(=S)N1c1ccc(F)cc1 | inconclusive: -12.5% | 
CCOC(=O)c1c(C)oc2ccc(NS(=O)(=O)c3ccc4c5c(cccc35)C(=O)N4)cc12 |  | inconclusive: 18.4 µM [falling, single point]
COc1cc(C2C(=O)N(C3CCCCC3)CC(=O)N2Cc2ccc(C)cc2)ccc1OC(C)C (stereo not given) | inactive: -6.05% | 
CCc1cc2c(=O)n(Cc3ccco3)c(SCc3c(C)noc3C)nc2s1 | inconclusive: -15.9% | 
O=C(Nc1nnc(S(=O)(=O)N2CCOCC2)s1)c1ccccc1 | inconclusive: 7.74% | 
N#Cc1nc(Cc2ccccc2)oc1N1CCCC1 | inconclusive: 0.289% | 
O=C(CSCc1ccccc1Cl)NN=C1CCCCCC1 | inactive: -8.69% | 
Cc1cc(OCc2cc(C(=O)N(C)Cc3ccccn3)no2)cc(C)c1Cl | inactive: -6.29% | 
COc1ccc2c(c1)-c1nc(/N=C/c3c(O)ccc4ccccc34)sc1CC2 |  | inconclusive: 6.51 µM [falling, full curve]
COc1cc2c(cc1NC(=O)CSc1nnc(Cc3cccs3)n1Cc1ccco1)oc1ccccc12 | inconclusive: -25.8% | 
CCN(CCCNC(=O)c1ccc2c(c1)NC(=O)CN2C)c1cccc(C)c1 |  | inconclusive: 22.4 µM [falling, single point]

Structure (SMILES) | activity change, negative = inhibition | Potency
Cc1cc(O)c(-c2cc(C(=O)NCCc3ccc(S(N)(=O)=O)cc3)[nH]n2)cc1C | inconclusive: -1.29% | 
O=C(N/N=C/c1ccc(O)cc1O)NC12CC3CC(CC(C3)C1)C2 |  | inconclusive: 11.2 µM [falling, partial curve]
COc1ccc(CCNC(=O)CCCOc2cc(=O)n(C)c3ccccc23)cc1OC | inconclusive: -20.6% | 
CNc1ccc(S(=O)(=O)NC)cc1[N+](=O)[O-] | inconclusive: -8.14% | 
Cc1ccc(C2=N/C(=C\N3CCCCC3)C(=O)O2)cc1 | inactive: 3.06% | 
O=C(CCN1CCOCC1)c1ccc(Br)cc1 | inconclusive: -3.79% | 
NC(=O)c1ccccc1OCc1nc2ccccc2s1 |  | inconclusive: 25.1 µM [falling, single point]
O=S(=O)(c1ccc(SCCO)nc1)N1CCOCC1 | inconclusive: 2.27% | 
O=[N+]([O-])c1ccc(S(=O)(=O)Nc2cccc(-c3ccc(N4CCCC4)nn3)c2)cc1 | inconclusive: 10.7% | 
Cc1ccc(NC(=S)NCc2ccc(F)cc2)c(C)c1 | inactive: 4.48% | 
CC(=O)c1cccc(NC(=O)Cc2cccs2)c1 | inconclusive: 3.07% | 
Cc1csc(NC(=O)CCC(=O)c2cccs2)n1 | inconclusive: 13.7% | 
O=C(Nc1nc(-c2ccncc2)cs1)c1ccc(S(=O)(=O)N2CCOCC2)cc1 | inconclusive: -0.273% | 
Cc1nc2ccc(NS(=O)(=O)c3ccc(F)c(F)c3)cc2s1 | inactive: -3.17% | 
O=c1oc2ccccc2n1Cc1cccc(Cl)c1 | inconclusive: -15.1% | 
CC1=NN(C(=O)CSCc2ccccc2)C(O)(c2ccc(F)cc2)C1 (stereo not given) | inconclusive: -2.73% | 
Cc1ccc(NC(=O)CN2C(=O)S/C(=C/c3ccc(O)c([N+](=O)[O-])c3)C2=O)cc1C | inconclusive: -8.47% | 
O=C(COc1ccc2c3c(c(=O)oc2c1)CCC3)NCc1ccncc1 | inconclusive: 4.49% | 
Cc1[nH]c(C)c(C(=O)/C=C/c2ccc([N+](=O)[O-])cc2)c1C |  | inconclusive: 12.6 µM [falling, partial curve]
CCOc1ccc(/C=C2/SC(=S)N(CCC(=O)Nc3ccc(C(=O)O)cc3)C2=O)cc1 |  | inconclusive: 35.5 µM [falling, partial curve, poor fit]
COc1cc(/C=C/c2[nH]c(=O)[nH]c(=O)c2[N+](=O)[O-])cc(OC)c1O | inconclusive: 8.83% | 
Cn1c(=O)c2c(ncn2CCC(=O)N/N=C/c2ccncc2)n(C)c1=O | inconclusive: 12.7% | 
CN(C1CCCCC1)S(=O)(=O)Cc1ccccc1 | inconclusive: 4.04% | 
O=C(Nc1ccc(Cl)cc1F)c1ccc(COc2c(F)c(F)c(F)c(F)c2F)o1 | inconclusive: -1.3% | 
Cc1[nH]n(C(N)=S)c(=O)c1N=Nc1ccccc1C(F)(F)F | inconclusive: 7.25% | 

Reprinted from the entries so far for reference:
Structure (SMILES) | activity change, negative = inhibition | Potency
Cc1ccc(C2=N/C(=C\N3CCCCC3)C(=O)O2)cc1 | inactive: 3.06% | 
O=C(CCN1CCOCC1)c1ccc(Br)cc1 | inconclusive: -3.79% | 
NC(=O)c1ccccc1OCc1nc2ccccc2s1 |  | inconclusive: 25.1 µM [falling, single point]
O=S(=O)(c1ccc(SCCO)nc1)N1CCOCC1 | inconclusive: 2.27% | 
